According to US20070031815A1, “Screening method for identifying hsp90 modulators” (University of Liverpool, priority 2003, published 2007):
For at least one compound, name, drawing or mass did not settle the structure.

Legend:
[1] = tested on: Hsp90-Hsp90; test: Yeast two-hybrid, Hsp90-Hsp90 (dimerisation of Hsp90); assay type: cell-based; conditions: preliminary experiments, Table 1 strains, FIG. 3
[2] = tested on: Tetrahymena pyriformis; conditions: T. pyriformis and other protozoa; cited from earlier work

COC1=C2C[C@@H](C)C[C@H](OC)[C@H](O)[C@@H](C)/C=C(\C)[C@H](OC(N)=O)[C@@H](OC)/C=C\C=C(/C)C(=O)NC(=CC1=O)C2=O [GA, Geldanamycin]
inhibition of the interaction in strain B (Hsp90-Hsp90) [1]: does not inhibit the interaction in strain B | Minimal Inhibitory Concentration, MIC [2]: 2 µg/mL
